Measured values: publication PMC2712759, “Hsp70 Chaperones and Type I PRMTs Are Sequestered at Intranuclear Inclusions Caused by Polyalanine Expansions in PABPN1” (PLoS ONE, 2009)
Results are given in words; binding and its absence hold for the method and conditions named. In cells and extracts the contact can be indirect. Some entries that bind do so weakly or less than the wild type. Tags and fused reporters may be left off the sequences shown.

Amino acid sequences for entries named in this document (tags omitted).
UniProt Q922H1: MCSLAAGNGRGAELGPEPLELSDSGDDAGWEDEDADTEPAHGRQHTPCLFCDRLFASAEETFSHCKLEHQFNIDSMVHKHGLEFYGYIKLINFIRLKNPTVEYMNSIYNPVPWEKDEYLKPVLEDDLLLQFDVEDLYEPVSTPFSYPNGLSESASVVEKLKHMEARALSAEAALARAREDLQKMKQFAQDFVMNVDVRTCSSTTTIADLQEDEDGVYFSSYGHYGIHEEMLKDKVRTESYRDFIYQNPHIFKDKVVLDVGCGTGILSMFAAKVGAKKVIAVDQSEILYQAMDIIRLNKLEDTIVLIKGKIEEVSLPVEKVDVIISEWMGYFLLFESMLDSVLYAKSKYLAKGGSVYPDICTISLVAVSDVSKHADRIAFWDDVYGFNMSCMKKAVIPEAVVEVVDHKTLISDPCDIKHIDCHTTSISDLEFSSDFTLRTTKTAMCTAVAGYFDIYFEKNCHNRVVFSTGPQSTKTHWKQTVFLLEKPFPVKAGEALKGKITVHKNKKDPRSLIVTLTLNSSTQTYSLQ
UniProt Q9JIF0: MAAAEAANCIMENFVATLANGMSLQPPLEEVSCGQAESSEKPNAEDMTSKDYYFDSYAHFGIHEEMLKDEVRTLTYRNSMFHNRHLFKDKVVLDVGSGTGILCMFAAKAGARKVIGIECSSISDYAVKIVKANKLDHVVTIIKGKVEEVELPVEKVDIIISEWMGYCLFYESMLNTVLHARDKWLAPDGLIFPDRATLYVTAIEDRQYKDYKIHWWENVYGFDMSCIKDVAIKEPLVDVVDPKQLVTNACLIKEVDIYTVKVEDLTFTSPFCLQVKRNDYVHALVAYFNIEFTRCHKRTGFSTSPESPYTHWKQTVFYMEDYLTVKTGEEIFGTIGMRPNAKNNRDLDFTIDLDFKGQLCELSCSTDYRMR

What was measured:
[1] = target: T1, normal human PABPN1 (poly(A)-binding protein nuclear 1), homopolymer of 10 alanine residues, His-tagged, biotinylated (human) (UniProt Q86U42); experiment: pull-down; biotinylated His-PABPN1 (2 µg) on streptavidin-agarose beads, incubated with RNase A-treated extracts of C2 myoblasts and myotubes, 4 h at 4°C, 20 mM Tris pH 8.0, 200 mM KCl, 10% glycerol; bound proteins detected by immunoblot; only the target purified
T1 sequence (chain, biotin (EZ-Link PEO-Maleimide Activated Biotin)): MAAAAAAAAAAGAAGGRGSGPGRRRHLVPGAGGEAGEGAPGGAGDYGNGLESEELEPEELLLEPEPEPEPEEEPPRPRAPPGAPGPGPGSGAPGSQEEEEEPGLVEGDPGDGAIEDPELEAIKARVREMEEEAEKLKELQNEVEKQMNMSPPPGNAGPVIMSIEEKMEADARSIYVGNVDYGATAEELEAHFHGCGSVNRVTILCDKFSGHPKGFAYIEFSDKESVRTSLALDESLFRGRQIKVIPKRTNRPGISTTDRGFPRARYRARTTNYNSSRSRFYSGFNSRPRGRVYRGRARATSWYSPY

[2] = target: T2, expanded human PABPN1, tract of 17 alanine residues, His-tagged, biotinylated (human) (UniProt Q86U42); experiment: as above
T2 sequence (chain, biotin (EZ-Link PEO-Maleimide Activated Biotin)): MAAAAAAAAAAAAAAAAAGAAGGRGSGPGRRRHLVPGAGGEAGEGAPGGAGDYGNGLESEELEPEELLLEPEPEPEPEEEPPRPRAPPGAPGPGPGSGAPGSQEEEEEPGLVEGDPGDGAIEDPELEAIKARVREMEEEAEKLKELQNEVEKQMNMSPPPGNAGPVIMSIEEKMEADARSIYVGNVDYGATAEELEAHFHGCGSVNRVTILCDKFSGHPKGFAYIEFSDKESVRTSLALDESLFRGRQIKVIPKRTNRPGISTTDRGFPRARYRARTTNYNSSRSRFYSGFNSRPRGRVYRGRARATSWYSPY

Substance | binding [1] | binding [2]
PRMT3 (protein arginine methyl transferase 3) (from UniProt Q922H1 1-528) (enzyme) | binds | binds
PRMT1 (protein arginine methyl transferase 1) (from UniProt Q9JIF0 1-371) (enzyme) | binds | binds
